From the RNAGym collection of RNA variant scans (doi:10.1126/science.aae0568)
Variants at the background level are over-represented here.

B1: tRNA (parent)
chain: GUUCCGUUGGCGUAAUGGUAACGCGUCUCCCUCCUAAGGAGAAGACUGCGGGUUCGAGUCCCGUACGGAACG

Variants of: B1
Experiment: yeast fitness relative to wild type (ratio to wild type); higher = fitter; tRNA-Arg(CCU), competitive growth, 37 C, YPD
How it was run: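 For this measurement, the tRNA-Arg(CCU) gene was varied by chemical synthesis at a 3% per-site mutation rate across 69 sites, and each variant was placed at the native genomic locus in Saccharomyces cerevisiae. The pooled strains went through a 24-hour competition in YPD at 37°C in six parallel replicates, with amplicons from start and end populations read by 100-nucleotide paired-end sequencing. Darwinian fitness relative to wild type followed from the change in each genotype's frequency. Genotypes needed ≥ 100 starting reads, and estimates < 0.5 were set to 0.5.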

Variant | yeast fitness
GUUCCGUUGGCGUAAUGGUAACGCGUCUCCCUCCGAAGGAGAAGACUGCGGGUUUGAGUCCCGUACGGAACG | 0.664
GUUCCGUUGCCGUAAUGGUAACGCGUCUCCCUCCUAAGGAGAAGACUGCGGGUUCGAGUGCCGUACGGAACG | ≤ 0.5
GUUCCGUUGGCGUAAAGGUAACGUGUCUCCCUCAUAAGGAGAAGACUGCGGGUUCGAGUCCCGUGCAGAACG | ≤ 0.5
GUCCUGGUGGCGUAAUGGUAAUGCGUGUCCCUCCUAAGGAGAAGACUGCGGGUUCGAGUCCCGUACGGACCG | ≤ 0.5
GUUCCGUUGGCGUAAUGGUAACGCGUCUCCCUCCUAAGGAGAAGACUGCGGGCUCGCGUCCCGUACCGAACG | ≤ 0.5
GUUCCGUUGGAGUAAUGGUACCGCGUCUCCCUCCUAAGGCGAAGACUGCGGGUUCGAGUCCCGCACGGAACG | ≤ 0.5
GUUCCGUUGGCGUAAUGGUAACGCGUCUGCCCCCUCAGGAAAAGACUGCAGGCUCGAGUCCCGUACGGAACG | ≤ 0.5
GUUCCGUUGGCGUCAUGGUAACGCCUCUCCCUCCUAAGGAGAAGACAGCGGGUUCGAGUCCCGUAAGGAACG | ≤ 0.5
GUUCCGUUGGAGUAAUGGUAACGUGUCUCCCUCCUAAGGAGAAGACUACGGGUUCGAGUCCCGUACGGAACG | ≤ 0.5
GUUCCGUUGGCGUAAUGGUAACGCGUCUCCUUCAUAAGGAGAAGACUGAGGGUUCGAGUCCCUUACAGAACG | ≤ 0.5
GUUCGGUUGGGGUAAUGGUAACGCGUCUCCCUCCUAAGGAGCAGACUGUGGGUUCGAGUCCCGGAUGGAACG | ≤ 0.5
GUUACGUUGGCGCAAUGGUAACGCGUCUCCCUCCUAAGGAGAAGACUGCGGGUUGCAGUCCCGUACGGAACG | ≤ 0.5
GUUUCGUGGGCAUAAUGGUAACGCGUCUCCCUCCUAAGGAGAAGACUGCGGGUUUGAGUCCCGUACGGAACG | ≤ 0.5
GUUCCGUUGGCGUGCUGGUAACGCGUCUCCCUCCUAAGGAGAAGACUGCGGGUUUGAGUCCCGUACGGAACG | ≤ 0.5
GUUCCGUUGGCGUAAUGGUAACGCGUCUCCCUCCUAGGGAGAAGACUGCGCGUUCGAGUCCCGUACGGAACG | 0.601
GUUCCGUUGGCGUAAUGGUAACGCGUCUCCCUCCUAAGGAGAAGUUUGUCGGUUCGAGUCUCGUACGGAACG | ≤ 0.5
GCUGCGUUGGCGUAGUCGUAACGCGUCUCCCUCAUAAGGAGAAGACUGCGGGUUCGAGUCCCGUACGGAACG | ≤ 0.5
GUUCCGUUGGCGUAAUGGUAACGCGUCUCCCUCCUAAGGAGAAGCCUGCGGGUUCGAGUGCCGUACAGAACG | ≤ 0.5
GUUCCGUUGCCGUAAUGGUAACGCGUCUCCCUCCUAAGGAGAAGUCUGCGGGUUCGAGUCCCGUACGGAACG | 0.778

Variant | yeast fitness
GUUCCGUUGGCGUAAUGGUAAUGCGUCUCCCUCCUAAGGGGAUGAGUGGGGGUUCGAGUCCUGUACGGAACG | 0.531
GUUCCUUUGGCGUAAUGGUAACGCGUCUCCCUCCUAAGGAGAAGACUGCGGGUUCGAGUCCCGUACGGAACG | 0.918
GUUCCGUUGGCGUAAUGGUAACGCGUCUGCCUCCUAAGGAGAGGACUGCGGGUUCGGGUCCCGCACGGAACG | ≤ 0.5
GUUCCGUUGGCGUAAUGGUAACGCGUCGCCCUCCUAAGGAGAAGACUGCGGGAUCGAGUCCCGUACGGAACG | ≤ 0.5
GUUCGGUUGGCGUAAUGGCGACGCGUCUCCCUCCUAAGGGGAAAAGUGCGGGUUCGAGUCCCGUACGGAACG | ≤ 0.5
GUUCCGUUGGUGUAAUGGGAACGCGUCUCCCUCCUAAGGAGAAGCCUGCGGGUUCGAGUGCCGUACGGAACG | ≤ 0.5
GUUCCGUUGCCGUAAUGGUAAAGGGUCUCCCUCCUAAGGAGAAGACUGCGGGAUCGAGUCCCAUACGGAACG | ≤ 0.5
GUUCCGUUGGCGUAAUGGUAACGGGUCUCCCUCCUAAGGAGAAGACUGUGGGUUCGAGUUACGUACGGAACG | ≤ 0.5
GUUCUGUUGGCGUCAUGGUACCGCGUCUCCCUCCUAAGGAGAAGACUGCGGGUUCGAGUCCCGUACGGAGCG | ≤ 0.5
GUUCCGUUGGCGUAAUGGUAACGCCUCUCCCUCCUAAGGCGAAGACUGCGGGUUCGAGUCCCGUACGCAACG | 0.645
GUUCCGUUGGCGUAAGGGUAACCCGUCUCCCUCCCAAGGAGAAGACUGCGGGUUCGAGUCCCGUACGGAACG | 0.655
GUUCCGUGGGCGUAAUGGUAACGCGUCUCCCUCCUAAGGAGAAGACUGCGGGUUGGAGUCCCGUACGGAACG | ≤ 0.5
GUUCAGUUGGCGUAACGGUACCGCGUCUCCCUUCUAAGGGGAUGACUGCGGGUGCGAGUCCGGUACGGAACG | ≤ 0.5
GUUCCGUUGGCGUAAUGGAAACACGUCUCCCUCCUAAGGAGAAGACUGCGGGUUCGAGUCCGGUACGGAACG | ≤ 0.5
GUUCCGUUGGCGUAAUGGUAACGCGUCUCCCUCCUAAGGAAAAGCCUGCGGGUUCGAGUCCCGUUCGGAACG | ≤ 0.5
GUUCCGUUGGCGUAAUGGUAAGGCGUCUCCCUCCUAAGGAGAACACUGCGGGUUCGAGUCCCGUACGGACCG | 0.553
GUUCCGUUGGCGUAAUGGUAACGCGUUUCCCUCCUAAGGAGACGACUGCGCAUUCGAGUCCCGUACGGCACG | ≤ 0.5
GUUCCGCUGGCGUAAUGGUAGCGCGUCUCCCUCCUAAGGACAAGACUGCGGGCUCGAGUCCCGAACGGAACG | ≤ 0.5
GUUCCGUUGGCGUAAUGAUAACGCGUCUCCCUCCUACGGAGAAGACUGCGGGUUCGAGUCCCGUACUGAACG | ≤ 0.5
